From PubChem BioAssay AID2685 (National Center for Advancing Translational Sciences (NCATS), 2010)
Some of the results follow. These are further read-outs of the screen, such as a control signal, another cell line or another target. No call is given for them. Most of these compounds were active or inconclusive in the main read-out, so they are no random draw. Potencies come from curve fits of mixed quality, noted in brackets.

Assay: qHTS Assay for Lipid Storage Modulators in Drosophila S3 Cells;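 on cell number change: cells counted by Cell Tracker Red CMTPX staining in the red channel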
Settings: BODIPY lipid droplet fluorescence, 18-24 h; for cell number change: measured here: cell count max response, cells fed with added oleic acid
Outline: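 Drosophila S3 cells got compounds at several concentrations plus oleic acid (400 uM solution). Laser-scanning cytometry with 488 nm excitation read lipid droplets at 500-530 nm and cells at 575-640 nm. Percent activity was relative to 20 uM Triacsin C.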

[1] = measured here: lipid fluorescence (Fed channel) AC50, cells fed with added oleic acid
[2] = measured here: cell number channel AC50, cells fed with added oleic acid

SMILES	cell number change	AC50 [1]	AC50 [2]
COc1cc(-c2nnc(COC(=O)CSCC(=O)Nc3cc(C)on3)o2)cc(OC)c1OC	-7.48%	29.1 µM [rising, single point]	
CC(/C=N/NC(=O)c1cccs1)=C\c1ccco1	-13%		
COc1ccc(C(=O)Oc2cccnc2)cc1		16.4 µM [falling, single point]	
COc1c(Cl)cc(Cl)cc1CNCc1ccccc1	69.7%	4.61 µM [falling, single point]	4.61 µM [falling, single point]
COc1ccc(-c2cccc(C(=O)NCC(=O)O)c2)cc1	30.6%	29.1 µM [falling, single point]	0.164 µM [rising, full curve, poor fit]
Cc1cccc(-[n+]2c(C)cc(C)c3c(=O)[nH]c(=O)[nH]c32)c1	3.08%	0.146 µM [rising, full curve, poor fit]	
COc1ccc(CN=Cc2c(O)[nH]c3ccccc23)cc1	76.3%	16.4 µM [rising, partial curve]	0.411 µM [rising, full curve]
Cc1nc(CN(C)C(=O)c2cc(COc3ccc4ncccc4c3)on2)cs1	-47.9%	9.2 µM [falling, partial curve]	8.2 µM [falling, partial curve]
CCCCN(C)CCNC(=O)CCn1nc(-c2ccc(Cl)cc2)ccc1=O	-6.38%		4.11 µM [rising, single point]
CO/N=C/C(=N\Nc1ccc(OC)cc1)C(=O)c1ccc(F)cc1	-61.5%	23.1 µM [falling, single point]	29.1 µM [falling, single point]
O=C(CSc1nnc(SCc2ccccc2Cl)s1)N/N=C/c1c[nH]c2ccccc12	-36.3%	14.6 µM [falling, single point]	25.9 µM [falling, single point]
Cc1n[nH]c(=O)c2c(NC(=O)COC(=O)Cc3ccc(Cl)cc3Cl)oc(C)c12	2.55%		
C=CCOC(=O)C1=C(C)NC(SCC)=C(C#N)C1c1ccc(Cl)cc1 (centres undefined)	-38.7%		20.6 µM [falling, single point]
COc1ccc(C(=O)[C@@H]2CC[C@](C)(C(=O)O)C2(C)C)cc1	-56.4%	16.4 µM [falling, partial curve]	16.4 µM [falling, partial curve]
Fc1ccc(-c2nnsc2Sc2ccccn2)cc1	94.7%		29.1 µM [rising, single point]
CCNS(=O)(=O)c1ccc(CCC(N)=O)cc1	113%	18.4 µM [rising, partial curve]	16.4 µM [rising, partial curve]
CC(C)(C)c1ccc(-c2nnc3sc(-c4ccncc4)nn23)cc1		0.461 µM [rising, full curve]	0.116 µM [rising, partial curve, poor fit]
CCC(=O)N1CCc2cc(S(=O)(=O)CCC(=O)O)ccc21	1%	20.6 µM [rising, partial curve]	
COc1ccc(Cl)cc1NC(=O)CN(C)C(=O)c1ccc(OCc2ccccc2)c(OC)c1		6.51 µM [rising, single point]	4.11 µM [rising, single point]
CN=C(NC1CCCCC1)c1ccc(Cl)cc1	31.6%	2.06 µM [rising, partial curve, poor fit]	23.1 µM [rising, single point]
O=C(Nc1ccc(Br)c2cccnc12)c1ccc(Cn2cc([N+](=O)[O-])cn2)o1	-3.9%	18.4 µM [rising, single point]	
CCOC(=O)c1c(C)[nH]c(C)c1C(=O)COC(=O)c1cc2ccccc2cc1OC	5%	6.51 µM [rising, single point]	
N#Cc1sc2nc(C3CC3)cc(-c3ccc(Cl)cc3)c2c1N	31.2%	2.06 µM [rising, full curve]	2.31 µM [rising, full curve, poor fit]
Cc1ccc2cc(C#N)c(N3CCCN(S(=O)(=O)c4ccccc4)CC3)nc2c1	0.746%	5.8 µM [rising, partial curve]	
Oc1ccc(-c2n[nH]c(=S)n2-c2ccc3c(c2)OCCO3)c(O)c1	14.5%		
Cc1cc(=O)oc2cc(OC(C)C(=O)O)c(Cl)cc12 (centres undefined)	-3.24%		
COC(=O)c1ccccc1NC(=O)CCS(=O)(=O)c1cc2c(cc1C)NC(=O)CO2	7.78%	9.2 µM [falling, partial curve, poor fit]	

Two records picked at random from those above, as already listed:
SMILES	cell number change	AC50 [1]	AC50 [2]
COc1ccc(CN=Cc2c(O)[nH]c3ccccc23)cc1	76.3%	16.4 µM [rising, partial curve]	0.411 µM [rising, full curve]
CCCCN(C)CCNC(=O)CCn1nc(-c2ccc(Cl)cc2)ccc1=O	-6.38%		4.11 µM [rising, single point]
